Experimental data: article PMC9266683
These are yes or no findings as the source states them, for the method shown. In cells and extracts the contact can be indirect. Some entries that bind do so weakly or less than the wild type. Where a sequence is shown, tags or fusion partners need not be part of it.

The chains behind the UniProt entries cited, without tags or fusion partners.
UniProt O48686: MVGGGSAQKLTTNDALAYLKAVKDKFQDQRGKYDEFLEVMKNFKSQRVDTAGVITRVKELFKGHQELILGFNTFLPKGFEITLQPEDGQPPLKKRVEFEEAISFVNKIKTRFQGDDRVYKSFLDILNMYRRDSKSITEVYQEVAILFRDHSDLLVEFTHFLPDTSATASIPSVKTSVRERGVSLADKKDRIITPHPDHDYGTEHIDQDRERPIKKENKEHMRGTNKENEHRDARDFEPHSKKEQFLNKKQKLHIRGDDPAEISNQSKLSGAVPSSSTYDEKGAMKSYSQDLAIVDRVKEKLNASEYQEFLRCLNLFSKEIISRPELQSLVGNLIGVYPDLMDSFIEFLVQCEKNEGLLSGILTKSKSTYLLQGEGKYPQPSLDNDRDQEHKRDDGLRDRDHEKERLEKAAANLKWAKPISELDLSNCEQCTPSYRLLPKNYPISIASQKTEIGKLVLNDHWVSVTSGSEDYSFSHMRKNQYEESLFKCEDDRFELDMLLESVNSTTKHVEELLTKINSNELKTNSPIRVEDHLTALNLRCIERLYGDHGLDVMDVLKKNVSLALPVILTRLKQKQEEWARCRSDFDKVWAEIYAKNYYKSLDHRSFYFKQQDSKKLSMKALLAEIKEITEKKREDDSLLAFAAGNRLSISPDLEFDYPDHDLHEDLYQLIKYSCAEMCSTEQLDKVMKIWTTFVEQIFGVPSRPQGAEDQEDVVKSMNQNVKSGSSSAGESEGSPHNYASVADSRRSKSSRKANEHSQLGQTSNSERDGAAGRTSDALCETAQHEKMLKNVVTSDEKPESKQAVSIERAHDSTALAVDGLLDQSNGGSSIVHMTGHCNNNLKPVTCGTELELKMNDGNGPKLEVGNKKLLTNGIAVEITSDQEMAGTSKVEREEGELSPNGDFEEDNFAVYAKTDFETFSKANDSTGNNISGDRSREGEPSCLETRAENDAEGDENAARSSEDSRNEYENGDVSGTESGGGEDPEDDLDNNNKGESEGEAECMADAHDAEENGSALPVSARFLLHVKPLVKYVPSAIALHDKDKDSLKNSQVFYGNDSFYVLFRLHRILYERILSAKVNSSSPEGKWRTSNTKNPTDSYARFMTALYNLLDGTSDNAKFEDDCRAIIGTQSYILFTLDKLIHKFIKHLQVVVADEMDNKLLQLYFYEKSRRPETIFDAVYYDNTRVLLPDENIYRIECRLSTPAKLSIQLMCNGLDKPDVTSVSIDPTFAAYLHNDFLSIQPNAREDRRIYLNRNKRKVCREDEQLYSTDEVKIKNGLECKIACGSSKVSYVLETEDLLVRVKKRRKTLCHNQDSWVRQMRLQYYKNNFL
UniProt Q9XIK6: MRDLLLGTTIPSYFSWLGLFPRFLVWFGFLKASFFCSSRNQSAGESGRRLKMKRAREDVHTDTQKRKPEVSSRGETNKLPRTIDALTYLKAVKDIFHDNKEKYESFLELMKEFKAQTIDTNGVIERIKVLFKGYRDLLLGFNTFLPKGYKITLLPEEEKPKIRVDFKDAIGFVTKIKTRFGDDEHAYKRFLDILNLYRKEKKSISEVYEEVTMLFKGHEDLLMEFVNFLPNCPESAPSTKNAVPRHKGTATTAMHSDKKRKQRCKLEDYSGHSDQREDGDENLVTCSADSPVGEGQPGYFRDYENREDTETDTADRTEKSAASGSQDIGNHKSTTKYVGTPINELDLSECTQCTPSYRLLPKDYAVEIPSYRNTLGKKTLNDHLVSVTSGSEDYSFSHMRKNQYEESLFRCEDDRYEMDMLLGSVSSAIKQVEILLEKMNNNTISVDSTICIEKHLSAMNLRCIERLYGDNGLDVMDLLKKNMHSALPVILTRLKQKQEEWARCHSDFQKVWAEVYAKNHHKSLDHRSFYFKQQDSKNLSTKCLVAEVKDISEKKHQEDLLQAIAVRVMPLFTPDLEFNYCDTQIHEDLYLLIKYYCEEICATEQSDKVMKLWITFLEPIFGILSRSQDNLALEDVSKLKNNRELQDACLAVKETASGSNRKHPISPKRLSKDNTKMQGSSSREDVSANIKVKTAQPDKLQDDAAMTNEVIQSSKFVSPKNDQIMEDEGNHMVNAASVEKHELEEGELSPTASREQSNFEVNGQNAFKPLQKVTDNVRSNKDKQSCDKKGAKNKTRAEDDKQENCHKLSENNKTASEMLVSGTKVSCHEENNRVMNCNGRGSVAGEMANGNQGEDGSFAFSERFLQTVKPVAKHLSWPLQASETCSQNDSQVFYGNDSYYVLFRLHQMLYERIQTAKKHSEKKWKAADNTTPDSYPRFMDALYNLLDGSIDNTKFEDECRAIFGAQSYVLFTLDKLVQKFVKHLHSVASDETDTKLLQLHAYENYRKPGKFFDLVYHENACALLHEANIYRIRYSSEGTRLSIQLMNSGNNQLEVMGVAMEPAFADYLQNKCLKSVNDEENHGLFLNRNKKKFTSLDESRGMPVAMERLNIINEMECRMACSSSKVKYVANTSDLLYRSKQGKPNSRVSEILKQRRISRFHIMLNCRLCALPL
UniProt Q9XIE1: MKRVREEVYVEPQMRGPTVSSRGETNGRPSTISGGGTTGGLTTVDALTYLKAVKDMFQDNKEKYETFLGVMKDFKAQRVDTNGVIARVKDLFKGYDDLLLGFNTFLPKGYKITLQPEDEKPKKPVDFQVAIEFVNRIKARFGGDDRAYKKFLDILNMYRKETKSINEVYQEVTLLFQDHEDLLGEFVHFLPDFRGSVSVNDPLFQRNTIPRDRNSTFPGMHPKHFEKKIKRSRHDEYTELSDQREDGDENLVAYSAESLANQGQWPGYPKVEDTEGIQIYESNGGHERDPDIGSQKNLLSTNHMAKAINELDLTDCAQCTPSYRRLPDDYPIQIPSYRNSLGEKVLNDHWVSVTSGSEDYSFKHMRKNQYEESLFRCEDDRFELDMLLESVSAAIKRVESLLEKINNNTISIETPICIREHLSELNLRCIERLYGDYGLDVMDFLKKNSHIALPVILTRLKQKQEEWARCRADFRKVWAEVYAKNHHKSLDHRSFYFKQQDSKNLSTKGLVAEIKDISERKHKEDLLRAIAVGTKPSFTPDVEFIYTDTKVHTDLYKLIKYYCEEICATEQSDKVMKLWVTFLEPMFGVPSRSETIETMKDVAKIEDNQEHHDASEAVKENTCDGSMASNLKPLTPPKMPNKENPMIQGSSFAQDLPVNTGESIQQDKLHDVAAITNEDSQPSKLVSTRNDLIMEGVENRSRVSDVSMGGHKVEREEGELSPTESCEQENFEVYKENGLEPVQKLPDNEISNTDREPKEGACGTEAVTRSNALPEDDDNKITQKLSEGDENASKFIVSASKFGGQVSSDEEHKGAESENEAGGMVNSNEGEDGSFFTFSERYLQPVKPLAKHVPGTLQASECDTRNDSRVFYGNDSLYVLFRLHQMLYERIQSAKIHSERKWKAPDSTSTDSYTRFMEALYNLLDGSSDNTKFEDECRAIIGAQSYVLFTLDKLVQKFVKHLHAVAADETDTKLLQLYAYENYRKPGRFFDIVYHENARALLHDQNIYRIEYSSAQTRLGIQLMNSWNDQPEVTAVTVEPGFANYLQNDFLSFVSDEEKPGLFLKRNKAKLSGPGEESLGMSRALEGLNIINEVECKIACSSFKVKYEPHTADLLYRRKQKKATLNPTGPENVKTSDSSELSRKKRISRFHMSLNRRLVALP
UniProt O04539: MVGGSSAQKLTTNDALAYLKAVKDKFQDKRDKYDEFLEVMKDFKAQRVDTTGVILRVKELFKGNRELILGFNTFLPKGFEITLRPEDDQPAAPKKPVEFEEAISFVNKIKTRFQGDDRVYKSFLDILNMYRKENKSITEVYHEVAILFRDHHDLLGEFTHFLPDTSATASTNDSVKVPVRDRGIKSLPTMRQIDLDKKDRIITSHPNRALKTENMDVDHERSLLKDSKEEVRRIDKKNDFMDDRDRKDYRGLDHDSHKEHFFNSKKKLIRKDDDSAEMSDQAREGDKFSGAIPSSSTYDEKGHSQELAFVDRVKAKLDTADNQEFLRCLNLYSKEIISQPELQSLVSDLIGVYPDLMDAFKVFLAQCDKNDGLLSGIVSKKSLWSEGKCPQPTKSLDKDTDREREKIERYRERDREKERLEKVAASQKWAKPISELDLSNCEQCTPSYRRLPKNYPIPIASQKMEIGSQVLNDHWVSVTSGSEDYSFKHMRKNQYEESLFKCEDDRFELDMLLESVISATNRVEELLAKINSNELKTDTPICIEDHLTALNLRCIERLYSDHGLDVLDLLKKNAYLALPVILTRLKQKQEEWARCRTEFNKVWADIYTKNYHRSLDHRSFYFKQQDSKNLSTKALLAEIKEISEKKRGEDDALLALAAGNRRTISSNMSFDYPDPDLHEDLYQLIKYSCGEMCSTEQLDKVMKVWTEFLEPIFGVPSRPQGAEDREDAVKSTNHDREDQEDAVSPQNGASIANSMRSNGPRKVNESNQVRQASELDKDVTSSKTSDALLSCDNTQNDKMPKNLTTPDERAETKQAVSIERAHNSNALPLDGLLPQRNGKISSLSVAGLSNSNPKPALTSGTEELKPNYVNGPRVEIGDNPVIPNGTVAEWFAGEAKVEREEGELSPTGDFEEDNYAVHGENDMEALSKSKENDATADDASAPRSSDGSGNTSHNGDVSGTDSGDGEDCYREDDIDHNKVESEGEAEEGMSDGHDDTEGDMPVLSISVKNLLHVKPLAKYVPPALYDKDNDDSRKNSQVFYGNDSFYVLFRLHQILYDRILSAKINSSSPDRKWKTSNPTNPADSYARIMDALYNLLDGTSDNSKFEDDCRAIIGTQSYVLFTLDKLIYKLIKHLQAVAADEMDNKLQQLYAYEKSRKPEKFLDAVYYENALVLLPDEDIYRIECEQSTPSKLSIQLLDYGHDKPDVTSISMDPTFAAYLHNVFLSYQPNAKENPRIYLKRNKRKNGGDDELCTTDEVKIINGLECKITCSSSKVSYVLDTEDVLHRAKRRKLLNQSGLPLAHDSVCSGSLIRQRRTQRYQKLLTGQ

Key:
Assay in all cases: co-IP; 35S::VAL1-FLAG and 35S::SNLs-HA co-expressed in N. benthamiana leaves; extract in 50 mM Tris-HCl pH 7.5, 150 mM NaCl, 0.1% Triton X-100; anti-HA magnetic beads overnight at 4 °C; blot with anti-FLAG
[1] = target: SNL3-HA (35S::SNL3-HA), full length (Arabidopsis thaliana) (UniProt O48686)
[2] = target: T1, SNL1-HA (35S::SNL1-HA), full length (Arabidopsis thaliana) (UniProt Q9SRH9)
T1 sequence: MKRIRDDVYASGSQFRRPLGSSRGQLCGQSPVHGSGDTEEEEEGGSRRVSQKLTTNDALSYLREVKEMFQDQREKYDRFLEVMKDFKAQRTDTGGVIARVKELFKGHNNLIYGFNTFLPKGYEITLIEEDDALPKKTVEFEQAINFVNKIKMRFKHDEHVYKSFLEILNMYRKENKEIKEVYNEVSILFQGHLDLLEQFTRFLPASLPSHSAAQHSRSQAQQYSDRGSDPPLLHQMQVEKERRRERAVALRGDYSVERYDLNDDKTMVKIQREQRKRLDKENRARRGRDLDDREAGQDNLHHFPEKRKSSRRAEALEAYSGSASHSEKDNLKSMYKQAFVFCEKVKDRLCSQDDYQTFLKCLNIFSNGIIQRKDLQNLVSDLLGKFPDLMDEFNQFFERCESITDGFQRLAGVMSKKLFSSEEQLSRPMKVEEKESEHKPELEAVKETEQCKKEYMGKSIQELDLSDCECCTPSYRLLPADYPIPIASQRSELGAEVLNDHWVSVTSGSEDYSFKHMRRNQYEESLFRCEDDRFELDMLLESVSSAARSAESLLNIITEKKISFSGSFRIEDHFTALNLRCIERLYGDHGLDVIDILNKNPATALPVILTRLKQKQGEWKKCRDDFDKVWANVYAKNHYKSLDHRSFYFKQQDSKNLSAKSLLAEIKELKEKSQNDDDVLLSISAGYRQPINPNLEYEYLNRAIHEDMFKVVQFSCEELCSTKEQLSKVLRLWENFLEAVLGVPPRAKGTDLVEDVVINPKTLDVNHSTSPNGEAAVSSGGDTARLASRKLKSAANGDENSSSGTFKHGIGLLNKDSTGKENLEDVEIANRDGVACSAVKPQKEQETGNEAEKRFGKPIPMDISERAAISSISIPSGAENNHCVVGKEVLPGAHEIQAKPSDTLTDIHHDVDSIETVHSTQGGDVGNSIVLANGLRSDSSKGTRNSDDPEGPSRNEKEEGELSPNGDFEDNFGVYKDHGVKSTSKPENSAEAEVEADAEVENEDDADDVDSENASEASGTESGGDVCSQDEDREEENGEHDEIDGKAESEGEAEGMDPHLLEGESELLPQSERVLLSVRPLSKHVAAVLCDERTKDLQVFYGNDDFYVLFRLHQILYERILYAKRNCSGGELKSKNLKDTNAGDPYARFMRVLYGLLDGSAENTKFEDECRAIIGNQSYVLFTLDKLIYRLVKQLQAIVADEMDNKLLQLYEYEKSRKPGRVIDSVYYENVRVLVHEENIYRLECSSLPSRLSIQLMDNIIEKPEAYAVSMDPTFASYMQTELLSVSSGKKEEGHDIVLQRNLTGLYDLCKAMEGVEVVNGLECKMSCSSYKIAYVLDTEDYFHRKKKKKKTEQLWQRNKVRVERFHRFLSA

[3] = target: SNL6-HA (35S::SNL6-HA), full length (Arabidopsis thaliana) (UniProt Q9XIK6)
[4] = target: T2, SNL2-HA (35S::SNL2-HA), full length (Arabidopsis thaliana) (UniProt Q9LFQ3)
T2 sequence: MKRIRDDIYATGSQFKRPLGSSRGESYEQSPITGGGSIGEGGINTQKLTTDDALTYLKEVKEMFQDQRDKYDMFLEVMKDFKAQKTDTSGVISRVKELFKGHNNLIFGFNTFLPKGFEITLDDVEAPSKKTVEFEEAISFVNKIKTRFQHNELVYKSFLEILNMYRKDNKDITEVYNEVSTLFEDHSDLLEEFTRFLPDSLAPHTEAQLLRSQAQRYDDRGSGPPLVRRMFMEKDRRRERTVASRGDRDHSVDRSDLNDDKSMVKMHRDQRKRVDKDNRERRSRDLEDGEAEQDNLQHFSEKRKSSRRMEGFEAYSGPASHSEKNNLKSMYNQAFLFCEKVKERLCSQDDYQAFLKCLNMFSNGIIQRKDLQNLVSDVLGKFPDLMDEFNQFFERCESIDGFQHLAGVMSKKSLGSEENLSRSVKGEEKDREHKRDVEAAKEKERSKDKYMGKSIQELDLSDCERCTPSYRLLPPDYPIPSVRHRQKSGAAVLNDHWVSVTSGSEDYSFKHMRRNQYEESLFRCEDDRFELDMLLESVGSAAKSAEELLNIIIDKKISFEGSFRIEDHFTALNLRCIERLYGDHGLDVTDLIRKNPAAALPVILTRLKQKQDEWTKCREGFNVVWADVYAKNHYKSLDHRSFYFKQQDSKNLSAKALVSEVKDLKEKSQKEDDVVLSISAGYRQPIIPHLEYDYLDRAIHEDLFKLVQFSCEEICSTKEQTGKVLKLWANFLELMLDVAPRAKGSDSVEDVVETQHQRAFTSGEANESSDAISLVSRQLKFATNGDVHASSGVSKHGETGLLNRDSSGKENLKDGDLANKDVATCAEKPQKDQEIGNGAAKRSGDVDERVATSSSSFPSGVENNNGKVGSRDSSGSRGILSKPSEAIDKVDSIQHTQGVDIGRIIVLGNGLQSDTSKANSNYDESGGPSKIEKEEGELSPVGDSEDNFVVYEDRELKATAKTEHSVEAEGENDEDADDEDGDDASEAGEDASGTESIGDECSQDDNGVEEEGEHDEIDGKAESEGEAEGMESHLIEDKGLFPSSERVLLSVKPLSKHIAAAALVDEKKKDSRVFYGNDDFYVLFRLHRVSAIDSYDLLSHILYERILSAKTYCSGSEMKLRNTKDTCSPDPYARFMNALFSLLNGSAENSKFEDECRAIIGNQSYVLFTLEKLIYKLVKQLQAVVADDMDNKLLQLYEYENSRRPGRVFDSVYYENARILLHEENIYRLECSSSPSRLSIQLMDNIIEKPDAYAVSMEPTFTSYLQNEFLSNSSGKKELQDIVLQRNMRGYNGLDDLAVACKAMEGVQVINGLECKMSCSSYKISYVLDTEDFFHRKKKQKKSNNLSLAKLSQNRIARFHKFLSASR

[5] = target: SNL5-HA (35S::SNL5-HA), full length (Arabidopsis thaliana) (UniProt Q9XIE1)
[6] = target: SNL4-HA (35S::SNL4-HA), full length (Arabidopsis thaliana) (UniProt O04539)

Measured: binding

B1: VAL1-FLAG (35S::VAL1-FLAG), full length (protein, UniProt Q8W4L5 1-790)
chain: MFEVKMGSKMCMNASCGTTSTVEWKKGWPLRSGLLADLCYRCGSAYESSLFCEQFHKDQSGWRECYLCSKRLHCGCIASKVTIELMDYGGVGCSTCACCHQLNLNTRGENPGVFSRLPMKTLADRQHVNGESGGRNEGDLFSQPLVMGGDKREEFMPHRGFGKLMSPESTTTGHRLDAAGEMHESSPLQPSLNMGLAVNPFSPSFATEAVEGMKHISPSQSNMVHCSASNILQKPSRPAISTPPVASKSAQARIGRPPVEGRGRGHLLPRYWPKYTDKEVQQISGNLNLNIVPLFEKTLSASDAGRIGRLVLPKACAEAYFPPISQSEGIPLKIQDVRGREWTFQFRYWPNNNSRMYVLEGVTPCIQSMMLQAGDTVTFSRVDPGGKLIMGSRKAANAGDMQGCGLTNGTSTEDTSSSGVTENPPSINGSSCISLIPKELNGMPENLNSETNGGRIGDDPTRVKEKKRTRTIGAKNKRLLLHSEESMELRLTWEEAQDLLRPSPSVKPTIVVIEEQEIEEYDEPPVFGKRTIVTTKPSGEQERWATCDDCSKWRRLPVDALLSFKWTCIDNVWDVSRCSCSAPEESLKELENVLKVGREHKKRRTGESQAAKSQQEPCGLDALASAAVLGDTIGEPEVATTTRHPRHRAGCSCIVCIQPPSGKGRHKPTCGCTVCSTVKRRFKTLMMRRKKKQLERDVTAAEDKKKKDMELAESDKSKEEKEVNTARIDLNSDPYNKEDVEAVAVEKEESRKRAIGQCSGVVAQDASDVLGVTELEGEGKNVREEPRVSS
binds: all assays above
